Data as given in US11292821B2, “Peptides and combination of peptides for use in immunotherapy against lung cancer, including NSCLC, SCLC and other cancers” (Immatics Biotechnologies GmbH, priority 2017, dated 2022).

Each substance was assayed on tumor tissue samples (assay: Identification and relative quantitation of HLA-presented tumor associated peptides by LC-MS (presentation profile)). Conditions: cancer entities on which the tumor-associated peptide was found presented (HLA ligandome LC-MS); abbreviations per table footnote.
Set-up: species or system human
“247 (RALLARLLL; listed as Homo sapiens) [compound 247]” was tested, and the “Peptide Presentation on cancer entities” value was “NHL”. In the case of “251 (VPRSSGQTV; listed as Homo sapiens) [compound 251]”, the “Peptide Presentation on cancer entities” value is reported as “BRCA, GBM, UEC”. For “255 (MPLLENLYL; listed as Homo sapiens) [compound 255]”, the “Peptide Presentation on cancer entities” value was “OC, UEC”. For “256 (SPRVPSIEL; listed as Homo sapiens) [compound 256]”, the “Peptide Presentation on cancer entities” value was “NHL”. “259 (RPPAAGLRGISL; listed as Homo sapiens) [compound 259]” was tested, and the “Peptide Presentation on cancer entities” value was “GBM”. With “260 (YPQHPGLNA; listed as Homo sapiens) [compound 260]” the “Peptide Presentation on cancer entities” value was “BRCA, GBM, GC, NHL”. For “263 (HPAPYGDLL; listed as Homo sapiens) [compound 263]”, the “Peptide Presentation on cancer entities” value was “UEC”. For “271 (MPLPWSLALP; listed as Homo sapiens) [compound 271]”, the “Peptide Presentation on cancer entities” value was “MEL”. With “273 (MPLLWLRGF; listed as Homo sapiens) [compound 273]” the “Peptide Presentation on cancer entities” value was “UEC”. With “275 (APHPPLSVV; listed as Homo sapiens) [compound 275]” the “Peptide Presentation on cancer entities” value was “AML, BRCA, MEL”. With “276 (LPRAGGAFL; listed as Homo sapiens) [compound 276]” the “Peptide Presentation on cancer entities” value was “NHL, OC, RCC, UEC”. “277 (MPLFEPRVF; listed as Homo sapiens) [compound 277]” was tested, and the “Peptide Presentation on cancer entities” value was “OC, UEC”. “278 (HPMIDINGIIVF; listed as Homo sapiens) [compound 278]” was tested, and the “Peptide Presentation on cancer entities” value was “UEC”. “280 (VPISEEGTPVL; listed as Homo sapiens) [compound 280]” was tested, and the “Peptide Presentation on cancer entities” value was “MEL, OC, PRCA, UEC”. In the case of “281 (RPRAPVTPA; listed as Homo sapiens) [compound 281]”, the “Peptide Presentation on cancer entities” value is reported as “GBM”. In the case of “282 (MPQIETRVIL; listed as Homo sapiens) [compound 282]”, the “Peptide Presentation on cancer entities” value is reported as “UEC”. For “283 (RPHSLSSEL; listed as Homo sapiens) [compound 283]”, the “Peptide Presentation on cancer entities” value was “AML, NHL”. In the case of “284 (FPVTSIFHTF; listed as Homo sapiens) [compound 284]”, the “Peptide Presentation on cancer entities” value is reported as “MEL, OC, UEC”. With “285 (FPSFLTNSL; listed as Homo sapiens) [compound 285]” the “Peptide Presentation on cancer entities” value was “AML”. For “288 (FPQKFIDLL; listed as Homo sapiens) [compound 288]”, the “Peptide Presentation on cancer entities” value was “UEC”. In the case of “289 (VPENHSVAL; listed as Homo sapiens) [compound 289]”, the “Peptide Presentation on cancer entities” value is reported as “UEC”. “290 (APYRPPDISL; listed as Homo sapiens) [compound 290]” was tested, and the “Peptide Presentation on cancer entities” value was “BRCA”. “292 (SPQRLRGLLL; listed as Homo sapiens) [compound 292]” was tested, and the “Peptide Presentation on cancer entities” value was “NHL”. In the case of “293 (RPRSALPRLLLP; listed as Homo sapiens) [compound 293]”, the “Peptide Presentation on cancer entities” value is reported as “NHL, UEC”. “295 (KPEGTRIAV; listed as Homo sapiens) [compound 295]” was tested, and the “Peptide Presentation on cancer entities” value was “NHL, UEC”. For “296 (MPMQDIKM; listed as Homo sapiens) [compound 296]”, the “Peptide Presentation on cancer entities” value was “UEC”. In the case of “301 (YMHKLLVL; listed as Homo sapiens) [compound 301]”, the “Peptide Presentation on cancer entities” value is reported as “AML, NHL, OC, PRCA, UEC”. For “305 (ALKLRVAVL; listed as Homo sapiens) [compound 305]”, the “Peptide Presentation on cancer entities” value was “NHL”. “306 (ILKVKVGL; listed as Homo sapiens) [compound 306]” was tested, and the “Peptide Presentation on cancer entities” value was “MEL, OC”. With “308 (MLKQKVEEL; listed as Homo sapiens) [compound 308]” the “Peptide Presentation on cancer entities” value was “OSCAR”. With “311 (EIRIRVVQM; listed as Homo sapiens) [compound 311]” the “Peptide Presentation on cancer entities” value was “MEL, NHL, OC, PRCA”. In the case of “313 (ELKKKEYEEL; listed as Homo sapiens) [compound 313]”, the “Peptide Presentation on cancer entities” value is reported as “NHL”. For “314 (AIISRLVAL; listed as Homo sapiens) [compound 314]”, the “Peptide Presentation on cancer entities” value was “NHL, OSCAR, UBC”. For “316 (VIKEKALTL; listed as Homo sapiens) [compound 316]”, the “Peptide Presentation on cancer entities” value was “NHL, OC, PRCA, RCC”. “318 (EAAIRSVEL; listed as Homo sapiens) [compound 318]” was tested, and the “Peptide Presentation on cancer entities” value was “GBM, MEL, NHL, OC”. “321 (AEMLESVIKNY; listed as Homo sapiens) [compound 321]” was tested, and the “Peptide Presentation on cancer entities” value was “NHL”. For “322 (KEVDPAGHSY; listed as Homo sapiens) [compound 322]”, the “Peptide Presentation on cancer entities” value was “NHL”. “323 (SEFMQVIF; listed as Homo sapiens) [compound 323]” was tested, and the “Peptide Presentation on cancer entities” value was “NHL”. For “328 (FEYDFLLQRI; listed as Homo sapiens) [compound 328]”, the “Peptide Presentation on cancer entities” value was “UEC”. For “330 (KEGDLGGKQW; listed as Homo sapiens) [compound 330]”, the “Peptide Presentation on cancer entities” value was “NHL”. For “335 (KELEATKQY; listed as Homo sapiens) [compound 335]”, the “Peptide Presentation on cancer entities” value was “MEL, NHL”. “337 (TENRYCVQL; listed as Homo sapiens) [compound 337]” was tested, and the “Peptide Presentation on cancer entities” value was “HCC”. With “342 (HEFSSPSHL; listed as Homo sapiens) [compound 342]” the “Peptide Presentation on cancer entities” value was “NHL”. With “343 (TEFTTVLY; listed as Homo sapiens) [compound 343]” the “Peptide Presentation on cancer entities” value was “GBM, NHL, PRCA”. With “345 (IEFIHPQAF; listed as Homo sapiens) [compound 345]” the “Peptide Presentation on cancer entities” value was “GBM, GC, NHL, PRCA”. For “347 (ALNPYQYQY; listed as Homo sapiens) [compound 347]”, the “Peptide Presentation on cancer entities” value was “UEC”. In the case of “348 (AEIQGNINHV; listed as Homo sapiens) [compound 348]”, the “Peptide Presentation on cancer entities” value is reported as “UEC”. “351 (EEVNYINTF; listed as Homo sapiens) [compound 351]” was tested, and the “Peptide Presentation on cancer entities” value was “AML, MEL, NHL, OC”. With “354 (TEDPTILRI; listed as Homo sapiens) [compound 354]” the “Peptide Presentation on cancer entities” value was “GC, HCC, OC, PRCA, UEC”. “356 (EEGRVYLF; listed as Homo sapiens) [compound 356]” was tested, and the “Peptide Presentation on cancer entities” value was “GBM, PRCA”. With “357 (RELENCFQIQ; listed as Homo sapiens) [compound 357]” the “Peptide Presentation on cancer entities” value was “UEC”. With “359 (DELFSIALY; listed as Homo sapiens) [compound 359]” the “Peptide Presentation on cancer entities” value was “NHL”. “363 (AELDKLTSV; listed as Homo sapiens) [compound 363]” was tested, and the “Peptide Presentation on cancer entities” value was “GBM, UEC”. With “366 (AENLFRAF; listed as Homo sapiens) [compound 366]” the “Peptide Presentation on cancer entities” value was “GBM, NHL, OC”. “367 (GEVHPSEMI; listed as Homo sapiens) [compound 367]” was tested, and the “Peptide Presentation on cancer entities” value was “UEC”. For “368 (GEFPVRVQV; listed as Homo sapiens) [compound 368]”, the “Peptide Presentation on cancer entities” value was “AML, GC, OC, UEC”. “370 (YEDLSQKY; listed as Homo sapiens) [compound 370]” was tested, and the “Peptide Presentation on cancer entities” value was “GBM, NHL, OC”. In the case of “371 (GELALKKKI; listed as Homo sapiens) [compound 371]”, the “Peptide Presentation on cancer entities” value is reported as “UEC”. “372 (TEGIIMKDF; listed as Homo sapiens) [compound 372]” was tested, and the “Peptide Presentation on cancer entities” value was “OC, PRCA, RCC, UEC”. With “373 (MEMQKSPVF; listed as Homo sapiens) [compound 373]” the “Peptide Presentation on cancer entities” value was “NHL, OC”. In the case of “374 (DEVNFLVY; listed as Homo sapiens) [compound 374]”, the “Peptide Presentation on cancer entities” value is reported as “CCC, GBC, GBM, NHL, OC, PRCA”. “375 (VYSDLHAFYY; listed as Homo sapiens) [compound 375]” was tested, and the “Peptide Presentation on cancer entities” value was “GBM, GC, HCC, MEL, PRCA”. In the case of “376 (KYVKDFHKF; listed as Homo sapiens) [compound 376]”, the “Peptide Presentation on cancer entities” value is reported as “AML, OC, PRCA, UEC”. “377 (VYVGAVNRI; listed as Homo sapiens) [compound 377]” was tested, and the “Peptide Presentation on cancer entities” value was “GC, HCC, PRCA”. With “379 (NYIVPDKQIF; listed as Homo sapiens) [compound 379]” the “Peptide Presentation on cancer entities” value was “GBM, GC, HCC, MEL, OC, PRCA”. With “380 (VFQEKHHVI; listed as Homo sapiens) [compound 380]” the “Peptide Presentation on cancer entities” value was “PRCA”. With “381 (TYSKKHFRI; listed as Homo sapiens) [compound 381]” the “Peptide Presentation on cancer entities” value was “MEL, OC”. With “382 (IYHSHHPTL; listed as Homo sapiens) [compound 382]” the “Peptide Presentation on cancer entities” value was “AML, MEL, NHL, OC, UEC”. With “383 (RYKQDVERF; listed as Homo sapiens) [compound 383]” the “Peptide Presentation on cancer entities” value was “AML, MEL, OC, PRCA, UEC”. For “384 (KYVKVFDKF; listed as Homo sapiens) [compound 384]”, the “Peptide Presentation on cancer entities” value was “AML, UEC”. With “385 (MYINEVERL; listed as Homo sapiens) [compound 385]” the “Peptide Presentation on cancer entities” value was “GBM, MEL, OC, PRCA, UEC”. With “386 (VYNDHSIYVW; listed as Homo sapiens) [compound 386]” the “Peptide Presentation on cancer entities” value was “AML, GBM, HCC, MEL, NHL, PRCA, UEC”. In the case of “387 (RWLPQKNAAQF; listed as Homo sapiens) [compound 387]”, the “Peptide Presentation on cancer entities” value is reported as “AML, GC, HCC, MEL, OC, RCC, UEC”. With “388 (FSIPEGALVAV; listed as Homo sapiens) [compound 388]” the “Peptide Presentation on cancer entities” value was “AML, CCC, CLL, CRC, GBC, GC, HCC, HNSCC, MEL, NHL, OC, OSCAR, PRCA, RCC, UBC, UEC”. “389 (TLMEQPLTTL; listed as Homo sapiens) [compound 389]” was tested, and the “Peptide Presentation on cancer entities” value was “AML, BRCA, CRC, HCC, HNSCC, NHL, OC, PRCA, UEC”. For “390 (HIMPTVHTV; listed as Homo sapiens) [compound 390]”, the “Peptide Presentation on cancer entities” value was “BRCA, CLL, GBM, HCC, HNSCC, MEL, NHL, OC, OSCAR, UBC, UEC”. For “391 (SLIDMRGIETV; listed as Homo sapiens) [compound 391]”, the “Peptide Presentation on cancer entities” value was “BRCA, CLL, GBM, HCC, HNSCC, OC, UBC”. “392 (SLFKDQMEL; listed as Homo sapiens) [compound 392]” was tested, and the “Peptide Presentation on cancer entities” value was “AML, BRCA, CLL, CRC, GBM, HCC, MEL, NHL, OC, PRCA, RCC, UBC, UEC”.
